Experimental data as given in patent US9914874B2, “Composite nanoparticles including a malonic acid derivative” (3M INNOVATIVE PROPERTIES COMPANY, priority 2013, dated 2018).

Assay: Quantum yield of green InP nanocrystals with sample ligand, Method 1 (toluene, Stock Solution 1), Quantaurus integrating sphere
Details: ratio to Reference 1 (DDSA ligand), 15 mg ligand in toluene, 90° C. 1.5 hours, excitation 440 nm

## CC(CC=C(C(=O)O)C(=O)O)CC(C)(C)C (stereo not shown) [Example 3, 2-(3,5,5-Trimethylhexylidene)propanedioic Acid]
  Quantum Yield (QY) relative to DDSA reference: 0.86
